The values below come from patent US5854010A, “Bioassay for detecting 2,3,7,8-tetrachlorodibenzo-para-dioxin and TCDD-like compounds and novel recombinant cell line useful therefor” (priority 1997, dated 1998).

Read-outs that look alike come from different tables or passages of the source. Some results are limits rather than exact numbers.

The subject of data set [1] is mouse H1L1.1 cells. The experiment in a line: Luciferase induction by TCDD in DMSO or serum, 96-well, 4 h; detection limits (FIG. 8). The data set is classed as cell-based. On the procedure: Specifically, since it is desired to utilize the present bioassay system directly to detect PAHs in samples without the need for solvent extraction and concentration, the dose-dependence of luciferase induction in cells incubated with increasing concentrations of TCDD in serum versus that observed with increasing concentrations of TCDD in DMSO was examined. In other words, the present bioassay system should be advantageously employed directly with a sample of serum from an animal or human, where the sample may contain TCDD or other PAHs and the serum is the solvent, whereby solvent extraction of the sample with DMSO as the solvent is unnecessary.
The cells were incubated with the respective increasing concentrations of TCDD for 4 hours and luciferase activity of cell lysates determined as follows.
More particularly, mouse H1L1.1 cells were grown in 10% fetal calf serum (purchased from Atlanta Biologicals) in RPMI 1640 media (purchased from Gibco) in T flasks to near confluence and then harvested with trypsin. The cells were washed in saline containing 10% fetal calf serum, resuspended to a concentration of 1.25×10^6 cells/ml, plated in 100 μl volumes in Dynatech 96-well viewplates, and incubated overnight at 37° C. in a 4.8% humidified atmosphere of CO2.
Chemical treatment was carried out by direct addition of TCDD-containing serum to these cultures or direct addition of TCDD-containing DMSO (1 μl/100 μl media) to the wells in triplicate followed by plate mixing on a microplate vortexer. The cultures were incubated for 4 hours at 37° C., followed by washing of the cells with saline and addition of 100 μl of cell lysis buffer (25 mM of tris phosphate, pH 7.8, 2 mM of dithiothreitol, 2 mM of 1,2-diaminocyclohexane-N,N,N'N'-tetracetic acid, 10% glycerol, and 1% Triton X-100).
After incubation for an additional 15 minutes, luciferase activity in the lysed cells was determined. Luciferase activity was sensitively measured using its bioluminescent substrate, luciferin in a Dynatech ML3000 microplate luminometer. In these experiments, cells either kept intact or lysed using luciferase lysis buffer (purchased from Promega) and luciferase activity in an aliquot of the lysate was determined by automatic injection of assay reagent and measurement of the resulting bioluminescence.

Data set [2] has as its system 101L cells. Particulars: cited from earlier work.

In the case of `Clc1cc2c(cc1Cl)Oc1cc(Cl)c(Cl)cc1O2` [TCDD, 2,3,7,8-tetrachlorodibenzo-para-dioxin], the “Sensitivity of the assay of TCDD in DMSO” value in data set [1] (TCDD in DMSO) is on record as less than 1 pg. In data set [1] (TCDD in serum, 4 h), the “Serum concentration of TCDD above which a significant response over background was observed” value is given as “above 50 pM”. Also, the “Serum concentration of TCDD corresponding to significant response” value in data set [1] (TCDD in serum, corresponds to 50 pM) is recorded as “approximately 16 ppt”. Moreover, in data set [1] (serum vs DMSO), the “Lower sensitivity of TCDD in serum than in DMSO” value is 1-2 orders of magnitude. In addition, the results for the “Sensitivity of TCDD per sample” value in data set [2] (Table 10 of Anderson et al.) and in data set [2] (conversion of 0.05 ng/g) were 0.05 ng/g and 50,000 parts per quadrillion, respectively.
